From PubChem BioAssay AID330 (DTP/NCI, 2004)
The list shows only some results of the screen, not a fair sample: it gathers tests that were run many times, whatever their T/C, doses with no T/C, and many T/C values between a quarter and a half above the control. Further doses and runs are listed elsewhere. T/C gives the treated animals as a percentage of the vehicle group. Some entries give survivors of the animals treated and no T/C: the source files T/C as zero there, which appears to mark a toxic dose or a test without result, not a measured value. Some survivor counts are full or nearly so, which does not show that the dose was tolerated: survival well below the control is almost never listed, so the zero probably covers shortened survival too. Survivors were counted at the toxicity check, usually on the fifth day, unless a day is given; later deaths do not show. Schedules are NCI's codes, read here as Q, the interval in days (D) or hours (H), X, the number of doses. Some doses were run more than once; the results are listed from low to high. Where survival is the endpoint, the PubChem record calls one and a half times the control and up active, and a quarter to a half above the control has no call in these data; cut-offs in other NCI protocols can differ. Some T/C values are followed by the survivors on the day toxicity was checked, most often the fifth; where none is given, no animal had died by that day.

System: P388 leukemia ip, CD2F1 mice, survival T/C
Experiment: NCI In Vivo Anticancer Drug Screen. Data for tumor model P388 Leukemia (intraperitoneal) in CD2F1 (CDF1) mice
Details: T/C endpoint: median survival time, higher T/C = longer survival
[1] = dose: 200.0 mg/kg/injection, schedule: Q01DX005 (ip), vehicle: saline
[2] = dose: 60.0 mg/kg/injection, schedule: Q01DX005 (ip), vehicle: saline with Tween-80
[3] = dose: 200.0 mg/kg/injection, schedule: Q01DX009 (ip), vehicle: saline with Tween-80
[4] = dose: 100.0 mg/kg/injection, schedule: Q01DX009 (ip), vehicle: saline with Tween-80
[5] = dose: 200.0 mg/kg/injection, schedule: Q01DX009 (ip), vehicle: saline
[6] = dose: 400.0 mg/kg/injection, schedule: Q01DX009 (ip), vehicle: saline

Cn1c2ccccc2c2ccc3c(c21)C(=O)C=CC3=O was tested, and the T/C (dose: 50.0 mg/kg/injection, schedule: Q01DX009 (ip), vehicle: distilled water + Tween-80) was 130 % of control, the survivor count (dose: 100.0 mg/kg/injection, schedule: Q01DX009 (ip), vehicle: distilled water + Tween-80) was 4 of 5 and the survivor count (dose: 200.0 mg/kg/injection, schedule: Q01DX009 (ip), vehicle: distilled water + Tween-80) was 2 of 5.
CCCC(=O)OC1CC2CC(O)CC(=O)OC(C(C)O)CC3C/C(=C\C(=O)OC)C(OC(C)=O)C(O)(O3)C(C)(C)/C=C/C3C/C(=C\C(=O)OC)CC(CC(O)(O2)C1(C)C)O3 (centres undefined) was tested, and the T/C (dose: 0.03 mg/kg/injection, schedule: Q01DX009 (ip), vehicle: saline + alcohol) was 133 % of control, the T/C (dose: 0.05 mg/kg/injection, schedule: Q01DX009 (ip), vehicle: saline + alcohol) was 135 % of control and the T/C (dose: 0.1 mg/kg/injection, schedule: Q01DX009 (ip), vehicle: saline + alcohol) was 147 % of control.
[Cu+2].[NH-]CC(=O)NC(Cc1ccccc1)C(=O)O.[NH-]CC(=O)NC(Cc1ccccc1)C(=O)O (centres undefined) was tested, and the survivor count (dose: 100.0 mg/kg/injection, schedule: Q04DX003 (ip), vehicle: saline) was 0 of 6, the survivor count (dose: 200.0 mg/kg/injection, schedule: Q04DX003 (ip), vehicle: saline) was 0 of 6 and the survivor count (dose: 400.0 mg/kg/injection, schedule: Q04DX003 (ip), vehicle: saline) was 0 of 6.
In the case of CCN(C(=O)CNCC(C)C)c1ccc(C)c(Cl)c1, the survivor count [1] is reported as 0 of 5.
CCc1nc(N)nc(N)c1-c1ccc(N2CC[N+](C)(C)CC2)cc1 was tested, and the survivor count (dose: 1.88 mg/kg/injection, schedule: Q01DX005 (ip), vehicle: saline with Tween-80) was 0 of 6, the survivor count (dose: 3.75 mg/kg/injection, schedule: Q01DX005 (ip), vehicle: saline with Tween-80) was 0 of 6 and the survivor count (dose: 7.5 mg/kg/injection, schedule: Q01DX005 (ip), vehicle: saline with Tween-80) was 0 of 6. For the same molecule, the survivor count (dose: 15.0 mg/kg/injection, schedule: Q01DX005 (ip), vehicle: saline with Tween-80) was 0 of 6, the survivor count (dose: 30.0 mg/kg/injection, schedule: Q01DX005 (ip), vehicle: saline with Tween-80) was 0 of 6 and the survivor count [2] was 0 of 6. For the same molecule, the survivor count (dose: 120.0 mg/kg/injection, schedule: Q01DX005 (ip), vehicle: saline with Tween-80) was 0 of 6 and the survivor count (dose: 240.0 mg/kg/injection, schedule: Q01DX005 (ip), vehicle: saline with Tween-80) was 0 of 6.
In the case of COc1c2c(nc3ccccc13)-c1cc3c(c(=O)n1C2)COC(=O)C3(O)CC(=O)N1CCOCC1 (centres undefined), the T/C (dose: 25.0 mg/kg/injection, schedule: Q01DX009 (ip), vehicle: saline) is reported as 149 % of control and the T/C (dose: 50.0 mg/kg/injection, schedule: Q01DX009 (ip), vehicle: suspension in saline) is reported as 137 % of control.
For O=C1C=CC(=O)[C@H]2CC=C3OC4OC5(CCCCC5)OC4[C@H]3[C@@H]12 (some centres undefined), the survivor count [2] was 6 of 6.
CN(C)P1(=O)OCC(C(C)(C)C)CN1C (centres undefined) was tested, and the survivor count (dose: 200.0 mg/kg/injection, schedule: Q01DX009 (ip), vehicle: Klucel (hydroxypropylcellulose) (HPC)) was 0 of 6.
CCN(CC)C(=O)C(N)Cc1ccc(OC)c(N(CCCl)CCCl)c1 (centres undefined) was tested, and the T/C (dose: 12.5 mg/kg/injection, schedule: Q01DX009 (ip), vehicle: saline) was 132 % of control and the T/C (dose: 12.5 mg/kg/injection, schedule: Q01DX009 (ip), vehicle: suspension in saline) was 132 % of control [5 of 6 alive].
In the case of CCCCCCCCCCCCn1c2nc(=O)[nH]c(=O)c-2nc2ccccc21, the survivor count (dose: 12.5 mg/kg/injection, schedule: Q01DX005 (ip), vehicle: saline with Tween-80) is reported as 6 of 6, the survivor count (dose: 25.0 mg/kg/injection, schedule: Q01DX005 (ip), vehicle: saline with Tween-80) is reported as 6 of 6 and the survivor count (dose: 50.0 mg/kg/injection, schedule: Q01DX005 (ip), vehicle: saline with Tween-80) is reported as 6 of 6.
COC1=CC(=O)C(c2cc(O)c(OC)cc2O)=CC1=O was tested, and the survivor count (dose: 100.0 mg/kg/injection, schedule: Q01DX005 (ip), vehicle: saline with Tween-80) was 2 of 5 and the survivor count (dose: 200.0 mg/kg/injection, schedule: Q01DX005 (ip), vehicle: saline with Tween-80) was 1 of 5.
COc1ccc2c(c1)N(C(=O)CN1CCN(C)CC1)c1ccccc1S2 was tested, and the survivor count (dose: 200.0 mg/kg/injection, schedule: Q04DX002 (ip), vehicle: saline with Tween-80) was 3 of 6 and the survivor count (dose: 400.0 mg/kg/injection, schedule: Q04DX002 (ip), vehicle: saline with Tween-80) was 0 of 6.
For O=C(Nc1ccccc1)OCc1ccc(OCc2ccccc2)cc1, the survivor count [3] was 6 of 6.
O=C(O)CC(=O)C(=O)O was tested, and the survivor count (dose: 400.0 mg/kg/injection, schedule: Q04DX002 (ip), vehicle: saline) was 3 of 6.
CN(C)C1CS(=O)(=O)C1c1ccccc1 (centres undefined) was tested, and the T/C (dose: 50.0 mg/kg/injection, schedule: Q01DX009 (ip), vehicle: saline with Tween-80) was 137 % of control.
COc1cc(C(=O)OC2c3ccccc3CCC2N(C)C)cc(OC)c1OC (centres undefined) was tested, and the survivor count [4] was 3 of 6 and the survivor count [3] was 2 of 6.
With O=c1cccc(O)[nH]1 the survivor count [5] was 2 of 6 and 5 of 6, the survivor count [6] was 0 of 6 and the survivor count (dose: 600.0 mg/kg/injection, schedule: Q01DX009 (ip), vehicle: saline) was 0 of 6.
Cc1cc(NCCCCCCCNc2cc(C)nc3cc([N+](=O)[O-])ccc23)c2ccc([N+](=O)[O-])cc2n1 was tested, and the T/C (dose: 3.13 mg/kg/injection, schedule: Q01DX009 (ip), vehicle: water) was 132 % of control, the T/C (dose: 6.25 mg/kg/injection, schedule: Q01DX009 (ip), vehicle: water) was 135 % of control and the T/C (dose: 12.5 mg/kg/injection, schedule: Q01DX009 (ip), vehicle: water) was 149 % of control. The T/C (dose: 25.0 mg/kg/injection, schedule: Q01DX009 (ip), vehicle: water, evaluated on day 30) was 137 % of control, the T/C (dose: 25.0 mg/kg/injection, schedule: Q01DX009 (ip), vehicle: water, evaluated on day 45) was 140 % of control and the T/C (dose: 37.5 mg/kg/injection, schedule: Q01DX009 (ip), vehicle: water) was 128 % of control [5 of 6 alive]. The survivor count (dose: 50.0 mg/kg/injection, schedule: Q01DX009 (ip), vehicle: water) was 3 of 6, the T/C (dose: 56.3 mg/kg/injection, schedule: Q01DX009 (ip), vehicle: water) was 128 % of control [4 of 6 alive] and the survivor count (dose: 100.0 mg/kg/injection, schedule: Q01DX009 (ip), vehicle: water) was 0 of 6. For the same molecule, the survivor count (dose: 200.0 mg/kg/injection, schedule: Q01DX009 (ip), vehicle: water) was 0 of 6 and the survivor count (dose: 400.0 mg/kg/injection, schedule: Q01DX009 (ip), vehicle: water) was 0 of 6.
CCOS(=O)(=O)CS(C)(=O)=O was tested, and the T/C (dose: 50.0 mg/kg/injection, schedule: Q01DX005 (ip), vehicle: saline) was 133 % of control and the survivor count [1] was 6 of 6.
For COc1ccc(N2C(=O)c3ccc4c5ccc6c7c(ccc(c8ccc(c3c48)C2=O)c75)C(=O)NC6=O)cc1, the survivor count (dose: 50.0 mg/kg/injection, schedule: Q01DX005 (ip), vehicle: Klucel (hydroxypropylcellulose) (HPC)) was 6 of 6.
In the case of O=CNCO, the T/C (dose: 2000.0 mg/kg/injection, schedule: Q01DX005 (ip), vehicle: water) is reported as 126 % of control, the T/C (dose: 3000.0 mg/kg/injection, schedule: Q01DX005 (ip), vehicle: water) is reported as 127 % of control and the survivor count (dose: 4000.0 mg/kg/injection, schedule: Q01DX005 (ip), vehicle: water) is reported as 4 of 5.
Cc1c([N+](=O)[O-])oc2c1C(=O)N([N+](=O)[O-])CCC2 was tested, and the survivor count (dose: 200.0 mg/kg/injection, schedule: Q04DX003 (ip), vehicle: Klucel (hydroxypropylcellulose) (HPC)) was 2 of 6 and the survivor count (dose: 400.0 mg/kg/injection, schedule: Q04DX003 (ip), vehicle: Klucel (hydroxypropylcellulose) (HPC)) was 0 of 6.
CNC(=O)n1cccc(OC)c1=O was tested, and the T/C (dose: 50.0 mg/kg/injection, schedule: Q01DX009 (ip), vehicle: saline) was 101, 103, 104, 107, 116 % of control, the T/C (dose: 100.0 mg/kg/injection, schedule: Q01DX009 (ip), vehicle: saline) was 98, 102, 105, 119, 130 % of control and the T/C [5] was 106, 108, 111, 155 % of control. The survivor count [5] was 2 of 6 and the survivor count [6] was 0 of 6 and 3 of 6.
CCOc1ccc(Nc2cc([N+](=O)[O-])ccc2C(=O)O)cc1 was tested, and the survivor count [4] was 6 of 6.
